These are yes or no findings as the source states them, for the method shown. Binding seen in cells or lysates may run through a third protein. A yes stands for co-enrichment or nearness to the bait. Other partners may have been found. One block for each molecule: values may come before it.
Assays:
[1] = molecular target: glyceraldehyde-3-phosphate dehydrogenase (mouse (endogenous in heart)) (UniProt P16858); test: affinity purification with mass spectrometry; mitochondrial fraction of Langendorff-perfused mouse hearts (control perfusion or 100 µmol/L GSNO for 30 minutes); GAPDH antibody-coupled agarose resin, overnight at 4°C, HEN buffer with 2.5% SDS; IgG-coupled resin as negative control; LC-MS/MS
[2] = molecular target: glyceraldehyde-3-phosphate dehydrogenase (mouse (endogenous in heart)) (UniProt P16858); test: affinity purification with mass spectrometry; cytosolic fraction of Langendorff-perfused mouse hearts (control perfusion or 100 µmol/L GSNO for 30 minutes); GAPDH antibody-coupled agarose resin, overnight at 4°C, HEN buffer with 2.5% SDS; IgG-coupled resin as negative control; LC-MS/MS

Chains of the proteins cited; added tags and fusions are not shown. Residues count along the entry.
UniProt P16858: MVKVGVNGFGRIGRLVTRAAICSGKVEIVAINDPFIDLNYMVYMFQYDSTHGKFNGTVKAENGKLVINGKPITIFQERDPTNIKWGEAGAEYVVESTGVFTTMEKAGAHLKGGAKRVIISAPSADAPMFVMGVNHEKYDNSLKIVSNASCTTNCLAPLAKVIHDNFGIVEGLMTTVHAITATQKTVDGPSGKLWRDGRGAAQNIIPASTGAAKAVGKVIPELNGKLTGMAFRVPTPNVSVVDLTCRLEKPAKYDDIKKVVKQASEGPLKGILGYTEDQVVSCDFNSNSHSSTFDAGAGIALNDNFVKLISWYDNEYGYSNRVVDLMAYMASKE
UniProt P63038, residues 27-573: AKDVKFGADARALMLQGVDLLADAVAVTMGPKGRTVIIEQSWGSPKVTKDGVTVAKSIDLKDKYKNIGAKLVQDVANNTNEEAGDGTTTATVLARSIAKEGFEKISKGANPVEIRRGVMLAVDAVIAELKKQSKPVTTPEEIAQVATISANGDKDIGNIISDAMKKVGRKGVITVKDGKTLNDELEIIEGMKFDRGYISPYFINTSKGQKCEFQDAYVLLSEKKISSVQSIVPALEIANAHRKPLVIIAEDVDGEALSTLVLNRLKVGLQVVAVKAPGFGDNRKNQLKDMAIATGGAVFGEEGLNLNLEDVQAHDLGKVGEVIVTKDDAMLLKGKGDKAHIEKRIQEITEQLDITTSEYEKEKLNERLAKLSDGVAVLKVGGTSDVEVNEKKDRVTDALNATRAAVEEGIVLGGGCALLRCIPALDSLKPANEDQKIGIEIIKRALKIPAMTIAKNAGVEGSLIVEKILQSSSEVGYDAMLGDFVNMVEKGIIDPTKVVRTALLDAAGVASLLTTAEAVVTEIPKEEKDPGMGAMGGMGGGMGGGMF
UniProt Q9CPQ1: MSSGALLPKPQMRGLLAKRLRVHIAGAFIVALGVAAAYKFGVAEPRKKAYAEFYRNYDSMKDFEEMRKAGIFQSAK
UniProt Q5SX39: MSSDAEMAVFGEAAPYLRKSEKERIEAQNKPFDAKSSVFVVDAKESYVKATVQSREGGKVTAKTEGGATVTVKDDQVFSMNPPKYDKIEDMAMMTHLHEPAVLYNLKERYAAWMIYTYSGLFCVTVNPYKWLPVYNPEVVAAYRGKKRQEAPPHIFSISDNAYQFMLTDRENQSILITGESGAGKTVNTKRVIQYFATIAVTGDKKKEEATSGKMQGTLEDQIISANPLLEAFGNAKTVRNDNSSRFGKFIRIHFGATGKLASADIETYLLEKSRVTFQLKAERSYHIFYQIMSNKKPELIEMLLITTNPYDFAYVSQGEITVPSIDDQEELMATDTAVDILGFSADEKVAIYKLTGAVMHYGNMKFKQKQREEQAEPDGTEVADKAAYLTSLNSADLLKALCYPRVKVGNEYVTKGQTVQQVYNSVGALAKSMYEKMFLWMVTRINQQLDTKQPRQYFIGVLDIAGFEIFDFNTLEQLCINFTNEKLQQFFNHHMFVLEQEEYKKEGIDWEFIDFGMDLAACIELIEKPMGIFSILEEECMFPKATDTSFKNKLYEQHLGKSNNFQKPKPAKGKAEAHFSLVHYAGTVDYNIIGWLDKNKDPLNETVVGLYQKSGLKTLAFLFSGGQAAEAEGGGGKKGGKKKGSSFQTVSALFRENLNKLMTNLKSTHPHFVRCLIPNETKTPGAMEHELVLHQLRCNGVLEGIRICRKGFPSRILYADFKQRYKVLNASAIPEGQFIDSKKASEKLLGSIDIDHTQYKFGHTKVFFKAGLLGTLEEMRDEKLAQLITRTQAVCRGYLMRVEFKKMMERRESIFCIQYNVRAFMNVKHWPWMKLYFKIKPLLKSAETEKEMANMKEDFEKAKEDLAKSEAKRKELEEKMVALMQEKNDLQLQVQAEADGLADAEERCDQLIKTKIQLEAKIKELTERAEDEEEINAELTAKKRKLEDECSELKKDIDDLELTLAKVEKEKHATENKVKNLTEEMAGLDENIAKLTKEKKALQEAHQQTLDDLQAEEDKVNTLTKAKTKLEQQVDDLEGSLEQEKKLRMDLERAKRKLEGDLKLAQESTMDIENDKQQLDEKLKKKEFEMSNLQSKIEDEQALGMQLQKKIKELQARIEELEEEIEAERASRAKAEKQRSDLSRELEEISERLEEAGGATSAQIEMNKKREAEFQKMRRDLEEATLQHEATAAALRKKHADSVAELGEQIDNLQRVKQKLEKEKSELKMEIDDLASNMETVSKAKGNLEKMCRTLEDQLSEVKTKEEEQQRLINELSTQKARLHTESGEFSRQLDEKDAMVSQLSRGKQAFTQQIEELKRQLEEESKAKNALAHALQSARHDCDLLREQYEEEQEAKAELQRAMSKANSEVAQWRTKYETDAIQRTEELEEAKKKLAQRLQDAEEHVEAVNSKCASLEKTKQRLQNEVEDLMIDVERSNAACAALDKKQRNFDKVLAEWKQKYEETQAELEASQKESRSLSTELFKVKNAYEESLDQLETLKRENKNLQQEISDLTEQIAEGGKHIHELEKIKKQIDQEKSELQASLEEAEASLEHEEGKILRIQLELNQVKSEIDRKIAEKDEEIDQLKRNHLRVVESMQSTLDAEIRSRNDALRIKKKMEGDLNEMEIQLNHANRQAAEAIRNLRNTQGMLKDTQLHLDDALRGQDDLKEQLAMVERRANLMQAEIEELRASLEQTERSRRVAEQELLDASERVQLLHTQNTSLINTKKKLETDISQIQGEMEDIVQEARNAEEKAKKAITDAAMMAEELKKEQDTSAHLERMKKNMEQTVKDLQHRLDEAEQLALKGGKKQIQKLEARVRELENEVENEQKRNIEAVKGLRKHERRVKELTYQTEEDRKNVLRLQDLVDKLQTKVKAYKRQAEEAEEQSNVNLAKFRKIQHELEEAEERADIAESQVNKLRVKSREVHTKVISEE
UniProt Q02566: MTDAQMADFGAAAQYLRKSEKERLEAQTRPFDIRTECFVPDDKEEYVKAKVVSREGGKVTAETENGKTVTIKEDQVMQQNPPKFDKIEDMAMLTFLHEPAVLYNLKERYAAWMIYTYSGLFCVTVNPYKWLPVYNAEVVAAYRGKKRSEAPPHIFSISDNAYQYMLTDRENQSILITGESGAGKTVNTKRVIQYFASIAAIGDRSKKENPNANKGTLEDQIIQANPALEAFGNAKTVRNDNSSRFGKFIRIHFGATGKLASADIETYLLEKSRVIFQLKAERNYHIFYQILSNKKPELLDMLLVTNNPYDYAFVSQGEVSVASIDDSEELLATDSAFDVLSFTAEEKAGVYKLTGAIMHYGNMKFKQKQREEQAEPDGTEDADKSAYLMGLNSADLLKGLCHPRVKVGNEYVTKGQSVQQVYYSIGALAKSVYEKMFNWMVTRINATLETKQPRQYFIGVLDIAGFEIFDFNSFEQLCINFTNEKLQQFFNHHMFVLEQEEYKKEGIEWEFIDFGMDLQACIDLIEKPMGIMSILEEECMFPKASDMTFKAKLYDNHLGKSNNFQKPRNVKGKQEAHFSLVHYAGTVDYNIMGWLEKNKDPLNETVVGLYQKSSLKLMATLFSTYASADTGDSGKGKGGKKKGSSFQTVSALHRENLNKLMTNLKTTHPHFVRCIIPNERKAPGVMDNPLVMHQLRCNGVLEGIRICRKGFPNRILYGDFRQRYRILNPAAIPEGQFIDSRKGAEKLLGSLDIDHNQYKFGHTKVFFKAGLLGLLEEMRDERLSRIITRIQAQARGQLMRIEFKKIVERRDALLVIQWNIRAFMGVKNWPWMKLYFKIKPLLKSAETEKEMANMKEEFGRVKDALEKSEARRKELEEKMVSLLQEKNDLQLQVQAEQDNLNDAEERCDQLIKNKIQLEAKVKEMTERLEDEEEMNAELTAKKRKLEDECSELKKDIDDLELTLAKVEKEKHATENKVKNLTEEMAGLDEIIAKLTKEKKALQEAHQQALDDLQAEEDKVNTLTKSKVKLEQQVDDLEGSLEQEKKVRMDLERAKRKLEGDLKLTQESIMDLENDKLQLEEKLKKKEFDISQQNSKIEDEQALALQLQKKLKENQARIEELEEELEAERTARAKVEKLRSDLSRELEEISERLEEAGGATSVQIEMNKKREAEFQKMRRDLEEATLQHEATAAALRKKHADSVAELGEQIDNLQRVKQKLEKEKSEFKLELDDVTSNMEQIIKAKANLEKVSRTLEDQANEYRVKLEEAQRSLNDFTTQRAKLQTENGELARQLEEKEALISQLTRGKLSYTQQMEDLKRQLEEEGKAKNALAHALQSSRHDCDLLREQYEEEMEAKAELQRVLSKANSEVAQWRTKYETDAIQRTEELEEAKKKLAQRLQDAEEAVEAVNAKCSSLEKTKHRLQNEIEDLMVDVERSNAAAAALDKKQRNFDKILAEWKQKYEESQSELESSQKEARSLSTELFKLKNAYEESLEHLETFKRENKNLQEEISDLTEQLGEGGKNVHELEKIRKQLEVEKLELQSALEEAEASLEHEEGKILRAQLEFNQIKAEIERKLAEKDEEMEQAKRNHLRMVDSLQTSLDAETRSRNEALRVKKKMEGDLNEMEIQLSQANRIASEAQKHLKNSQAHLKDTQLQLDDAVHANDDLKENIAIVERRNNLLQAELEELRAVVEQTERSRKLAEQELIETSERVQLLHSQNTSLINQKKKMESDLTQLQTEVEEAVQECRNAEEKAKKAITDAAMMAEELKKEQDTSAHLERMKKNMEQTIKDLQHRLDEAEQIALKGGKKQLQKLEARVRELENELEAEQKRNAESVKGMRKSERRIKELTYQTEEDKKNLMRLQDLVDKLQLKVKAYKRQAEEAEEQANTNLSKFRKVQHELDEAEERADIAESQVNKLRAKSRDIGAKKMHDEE
UniProt Q922F4: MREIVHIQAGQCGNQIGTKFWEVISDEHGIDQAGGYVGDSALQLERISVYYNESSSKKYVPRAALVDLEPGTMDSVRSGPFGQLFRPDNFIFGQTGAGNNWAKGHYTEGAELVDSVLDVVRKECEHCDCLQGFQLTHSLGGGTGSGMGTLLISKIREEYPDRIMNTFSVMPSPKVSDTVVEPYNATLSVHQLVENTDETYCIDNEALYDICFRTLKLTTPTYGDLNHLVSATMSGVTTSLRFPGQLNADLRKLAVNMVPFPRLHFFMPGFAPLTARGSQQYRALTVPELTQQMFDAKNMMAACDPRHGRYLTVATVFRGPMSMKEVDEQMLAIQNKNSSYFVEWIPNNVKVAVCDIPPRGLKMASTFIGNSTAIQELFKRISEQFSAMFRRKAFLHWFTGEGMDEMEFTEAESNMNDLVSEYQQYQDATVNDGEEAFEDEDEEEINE
UniProt P68373: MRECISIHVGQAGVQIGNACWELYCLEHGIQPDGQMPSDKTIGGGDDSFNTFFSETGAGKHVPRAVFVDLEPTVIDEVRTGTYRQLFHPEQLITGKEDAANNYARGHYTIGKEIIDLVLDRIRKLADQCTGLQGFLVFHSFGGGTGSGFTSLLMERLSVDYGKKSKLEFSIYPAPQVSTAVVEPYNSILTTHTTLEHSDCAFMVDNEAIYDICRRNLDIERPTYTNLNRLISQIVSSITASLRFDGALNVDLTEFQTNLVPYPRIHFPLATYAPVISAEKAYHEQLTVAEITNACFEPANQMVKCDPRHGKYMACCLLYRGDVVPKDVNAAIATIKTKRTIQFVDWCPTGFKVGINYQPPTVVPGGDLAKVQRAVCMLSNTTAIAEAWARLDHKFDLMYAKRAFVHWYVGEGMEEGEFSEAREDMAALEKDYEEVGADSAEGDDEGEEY
UniProt P68372: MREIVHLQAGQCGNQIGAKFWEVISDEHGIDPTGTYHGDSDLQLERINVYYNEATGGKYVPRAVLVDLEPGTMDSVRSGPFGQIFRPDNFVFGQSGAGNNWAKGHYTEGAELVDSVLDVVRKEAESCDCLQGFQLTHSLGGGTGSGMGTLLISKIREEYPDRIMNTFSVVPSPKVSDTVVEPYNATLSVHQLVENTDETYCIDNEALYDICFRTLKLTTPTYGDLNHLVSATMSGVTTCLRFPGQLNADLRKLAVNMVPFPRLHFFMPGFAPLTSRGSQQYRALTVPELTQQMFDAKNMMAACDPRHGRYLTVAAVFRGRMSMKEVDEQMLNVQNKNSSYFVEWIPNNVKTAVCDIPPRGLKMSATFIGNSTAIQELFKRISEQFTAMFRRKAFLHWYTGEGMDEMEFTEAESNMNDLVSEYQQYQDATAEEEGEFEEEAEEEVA

binding [1]: binds
Molecule: 60 kDa heat shock protein (from UniProt P63038 27-573)

binding [1]: binds
Molecule: Cytochrome C oxidase 6C (from UniProt Q9CPQ1 1-76)

binding [1]: binds
Molecule: Myosin4 (from UniProt Q5SX39 1-1939)

binding [1]: binds
Molecule: Myosin-6 (from UniProt Q02566 1-1938)

binding [2]: binds
Molecule: Tubulin β-6 (from UniProt Q922F4 1-447)

binding [2]: binds
Molecule: Tubulin-α-1C (from UniProt P68373 1-449)

binding [2]: binds
B1: tRNA wybutosin-synthesizing protein 3 homolog (enzyme, UniProt Q8BSA9 1-257)
chain: MDRSAEFGRWKAQSLSKADLSRKGSVDEDAVEVVELLNSREEFFTTSSCAGRILLLDGSTEGSGVQKQHCCWLLVTHKPCARDDVMAALKGATSEAVLKFEPFILHVQCRTLQDAQTLHSVAIDSGFRNSGITVGKRGKTMLAVRGTHGLEVPLTHKGKLMVTEEYIEFLLTIANQKMEENKRRIGRFYNYLQHALKRETISNSHSKIKERNNPLCTHKNRRSQGKAQGPSTTEDNGRELEDGDGLEISAALFLGDD

binding [2]: binds
B4: Transformer-2 protein homolog α (protein, UniProt Q6PFR5 1-281)
chain: MSDVEENNFEGRESRSQSKSPTGTPARVKSESRSGSRSPSRVSKHSESHSRSRSKSRSRSRRHSHRRYTRSRSHSHRRRSRSRSYTPEYRRRRSRSHSPMSNRRRHTGSRANPDPNTCLGVFGLSLYTTERDLREVFSRYGPLSGVNVVYDQRTGRSRGFAFVYFERIDDSKEAMERANGMELDGRRIRVDYSITKRAHTPTPGIYMGRPTHSGGGGGGGGGGGGGGGGGGGRRRDSYYDRGYDRGYDRYEDYDYRRRSPSPYYSRYRSRSRSRSYSPRRY

Further lines, the molecule ahead of its results:

Molecule: Tubulin β-2C chain (from UniProt P68372 1-445)
binding [2]: binds

B2: Aconitate hydratase (enzyme, UniProt Q99KI0 28-780)
chain: QRAKVAMSHFEPSEYIRYDLLEKNINIVRKRLNRPLTLSEKIVYGHLDDPANQEIERGKTYLRLRPDRVAMQDATAQMAMLQFISSGLPKVAVPSTIHCDHLIEAQVGGEKDLRRAKDINQEVYNFLATAGAKYGVGFWRPGSGIIHQIILENYAYPGVLLIGTDSHTPNGGGLGGICIGVGGADAVDVMAGIPWELKCPKVIGVKLTGSLSGWTSPKDVILKVAGILTVKGGTGAIVEYHGPGVDSISCTGMATICNMGAEIGATTSVFPYNHRMKKYLSKTGRTDIANLAEEFKDHLVPDPGCQYDQVIEINLNELKPHINGPFTPDLAHPVADVGTVAEKEGWPLDIRVGLIGSCTNSSYEDMGRSAAVAKQALAHGLKCKSQFTITPGSEQIRATIERDGYAQILRDVGGIVLANACGPCIGQWDRKDIKKGEKNTIVTSYNRNFTGRNDANPETHAFVTSPEIVTALAIAGTLKFNPETDFLTGKDGKKFKLEAPDADELPRSDFDPGQDTYQHPPKDSSGQRVDVSPTSQRLQLLEPFDKWDGKDLEDLQILIKVKGKCTTDHISAAGPWLKFRGHLDNISNNLLIGAINIENGKANSVRNAVTQEFGPVPDTARYYKKHGIRWVVIGDENYGEGSSREHAALEPRHLGGRAIITKSFARIHETNLKKQGLLPLTFADPSDYNKIHPVDKLTIQGLKDFAPGKPLKCVIKHPNGTQETILLNHTFNETQIEWFRAGSALNRMKELQQ
binding [1]: binds

B3: Alpha-crystallin B (protein, UniProt P23927 1-175)
chain: MDIAIHHPWIRRPFFPFHSPSRLFDQFFGEHLLESDLFSTATSLSPFYLRPPSFLRAPSWIDTGLSEMRLEKDRFSVNLDVKHFSPEELKVKVLGDVIEVHGKHEERQDEHGFISREFHRKYRIPADVDPLTITSSLSSDGVLTVNGPRKQVSGPERTIPITREEKPAVAAAPKK
binding [2]: binds

B5: Succinyl-CoA ligase [ADP-forming] β (enzyme, UniProt Q9Z2I9 54-463)
chain: SLHEYLSMELLQEAGVSVPKGFVAKSSDEAYAIAKKLGSKDVVIKAQVLAGGRGKGTFTSGLKGGVKIVFSPEEAKAVSSQMIGQKLITKQTGEKGRICNQVLVCERKYPRREYYFAITMERSFQGPVLIGSAQGGVNIEDVAAENPEAIVKEPIDIVEGIKKEQAVTLAQKMGFPSNIVDSAAENMIKLYNLFLKYDATMVEINPMVEDSDGKVLCMDAKINFDSNSAYRQKKIFDLQDWSQEDERDKEAANADINYIGLDGSIGCLVNGAGLAMATMDIIKLHGGTPANFLDVGGGATVQQVTEAFKLITSDKKVQAILVNIFGGIMRCDVIAQGIVMAVKDLEIRIPVVVRLQGTRVDDAKALIADSGLKILACDDLDEAAKMVVKLSEIVTLAKEAHVDVKFQLPI
binding [1]: binds

B6: Isocitrate dehydrogenase [NAD] α (enzyme, UniProt Q9D6R2 28-366)
chain: AGGVQTVTLIPGDGIGPEISASVMKIFDAAKAPIQWEERNVTAIQGPGGKWMIPPEAKESMDKNKMGLKGPLKTPIAAGHPSMNLLLRKTFDLYANVRPCVSIEGYKTPYTDVNIVTIRENTEGEYSGIEHVIVDGVVQSIKLITEEASKRIAEFAFEYARNNHRSNVTAVHKANIMRMSDGLFLQKCREVAENCKDIKFNEMYLDTVCLNMVQDPSQFDVLVMPNLYGDILSDLCAGLIGGLGVTPSGNIGANGVAIFESVHGTAPDIAGKDMANPTALLLSAVMMLRHMGLFDHAAKIEAACFATIKDGKSLTKDLGGNAKCSDFTEEICRRVKDLD
binding [1]: binds

B7: Phosphate carrier (protein, UniProt Q8VEM8 46-357)
chain: AVEEYSCEFGSMKYYALCGFGGVLSCGLTHTAVVPLDLVKCRMQVDPQKYKGIFNGFSITLKEDGVRGLAKGWAPTLIGYSMQGLCKFGFYEVFKALYSNILGEENTYLWRTSLYLASSASAEFFADIALAPMEAAKVRIQTQPGYANTLREAVPKMYKEEGLNAFYKGVAPLWMRQIPYTMMKFACFERTVEALYKFVVPKPRSECTKAEQLVVTFVAGYIAGVFCAIVSHPADSVVSVLNKEKGSTASQVLQRLGFRGVWKGLFARIIMIGTLTALQWFIYDSVKVYFRLPRPPPPEMPESLKKKLGLTE
binding [1]: binds
